Experimental data published in patent US20220364173.
The exact form of at least one protein or probe is not confirmed. A weaker result is weaker than the reference pair of the same experiment. Tags and fusion partners may be left off the protein sequences shown.

Target: T1, MjDim1 (Dim1/KsgA dimethyltransferase) (Methanocaldococcus jannaschii) (UniProt Q58435)
T1 sequence (looked up, limits assumed): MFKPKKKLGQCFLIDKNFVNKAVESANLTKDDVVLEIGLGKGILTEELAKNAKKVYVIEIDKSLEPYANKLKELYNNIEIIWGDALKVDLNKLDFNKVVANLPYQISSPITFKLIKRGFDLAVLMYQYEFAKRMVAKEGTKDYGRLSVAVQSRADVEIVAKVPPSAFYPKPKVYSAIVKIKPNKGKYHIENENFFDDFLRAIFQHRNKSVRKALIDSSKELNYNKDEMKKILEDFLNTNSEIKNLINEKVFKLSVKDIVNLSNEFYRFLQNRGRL
Test: activity assay
Conditions: allyl-SAM cofactor, Km similar, purified recombinant protein

| Sequence | activity on this sequence (m6A at the A of GGACU, MALDI shows allyl transfer, kcat 10-fold that of unmodified A) | activity on this sequence (no product by MALDI, kcat about 10-fold lower than m6A probe, variant of 12mer m6A RNA (Maldi_Probe_m6A)) |
| --- | --- | --- |
| CGUGGACUGGCU [12mer m6A RNA (Maldi_Probe_m6A)] | active |  |
| CGUGGACUGGCU [12mer unmodified RNA (Maldi_Probe_A)] |  | less active |
